PubChem BioAssay AID652272 – Drosophila RNAi Screening Center – 2013
Assay: 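Genome-wide knock-down search for components of Hedgehog signalling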 (primary screen). Cell system: Drosophila clone 8 (Cl8) cells. Knock-down reagent: long dsRNA against Drosophila genes. Measurement: 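Plate reader light from a firefly reporter under a ptc promoter fragment that responds to Hedgehog, with Renilla light as transfection reference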. Reading the numbers: firefly Hh reporter signal: higher = more ptc reporter light; Renilla reference signal: higher = more Renilla control light. Active means: 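Called a hit if the two-replicate mean z-score lies below -2 or above +3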. Meaning of the calls: active = hit: reporter lowered or raised; inactive = not a hit.
In all, the deposit lists about 21,000 reagents; below is a random part of those that have a named target and a result. In the full data, 503 (2.4%) are marked active. 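Raw plate light values, not normalised; calls rest on replicate z-scores that were not deposited; hits include reporter decreases as well as increases.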 A number with no mark means an inactive call. The numbers tell different reagents against one gene apart. Names joined by + are all predicted targets of the reagent. Not stated in the record: the amount of reagent, the time to read-out.

| Gene | dsRNA no. | firefly Hh reporter signal, replicate 1 | firefly Hh reporter signal, replicate 2 | firefly Hh reporter signal, replicate 3 | Renilla reference signal, replicate 1 | Renilla reference signal, replicate 2 |
| --- | --- | --- | --- | --- | --- | --- |
| Hers | 1 | 1.19e5 | 1.16e5 | – | 2888 | 2857 |
| Hers | 2 | 1.20e5 | 3.02e5 | – | 2787 | 12524 |
| CG43347 | 1 | 86888 | 2.52e5 | – | 2224 | 8722 |
| CG43347 | 2 | 2.55e5 (active) | 90088 | 2.70e5 | 2130 | 2418 |
| pnr | 1 | 1.73e5 | 1.07e5 | – | 7096 | 4673 |
| CG3288 | 1 | 1.27e5 | 1.34e5 | – | 4659 | 3904 |
| CG7102 | 1 | 1.61e5 | 66166 | – | 5494 | 3043 |
| CG7102 | 2 | 97713 | 63832 | – | 2435 | 5008 |
| CG16896 | 1 | 1.00e5 | 49157 | – | 3936 | 873 |
| Polr2L | 1 | 5.61e5 | 94962 | – | 24916 | 2448 |
| RhoGAP102A | 1 | 4.69e5 | 2.29e5 | – | 23472 | 4689 |
| RhoGAP102A | 2 | 74729 | 1.94e5 | – | 2517 | 7693 |
| eIF3g1 | 1 | 95400 | 36327 | – | 2157 | 1632 |
| BRWD3 | 1 | 1.17e5 | 1.15e5 | – | 4970 | 5018 |
| BRWD3 | 2 | 4.70e5 | 92329 | – | 19898 | 2458 |
| Obp28a | 1 | 1.84e5 | 65575 | – | 4061 | 7145 |
| CG6424 | 1 | 94522 | 77220 | – | 4281 | 3168 |
| CG13306 | 1 | 49895 | 50080 | – | 4347 | 3765 |
| CG5644 | 1 | 47594 | 41799 | – | 4995 | 3241 |
| CG6978 | 1 | 85176 | 1.66e5 | – | 1621 | 7286 |
| CG14237 | 1 | 90541 | 88186 | – | 3510 | 2976 |
| lncRNA:CR43421 | 1 | 1.45e5 | 2.75e5 | – | 4112 | 12247 |
| Usp2 | 1 | 4.94e5 | 1.67e5 | – | 30615 | 4636 |
| Usp2 | 2 | 1.39e5 | 1.13e5 | – | 2858 | 2711 |
| Usp2 | 3 | 57712 | 1.42e5 | – | 1976 | 8059 |
| CG5445 | 1 | 94215 | 1.32e5 | – | 2263 | 6772 |
| Tektin-A | 1 | 74993 | 34986 | – | 3282 | 1833 |
| Elp1 | 1 | 1.18e5 | 82277 | – | 4964 | 3452 |
| eIF2Bepsilon | 1 | 98485 | 91236 | – | 2413 | 3624 |
| comm2 | 1 | 53297 | – | – | 2966 | 2061 |
| comm2 | 2 | 1.92e5 | – | – | 6950 | 5437 |
| mRpS21 | 1 | 60282 | 3.33e5 | – | 12662 | 6730 |
| CG10948 | 1 | 39980 | 72633 | 59394 | 8131 | 4787 |
| CG32718 | 1 | 5.14e5 | 1.45e5 | – | 28361 | 3563 |
| Archease | 1 | 6.46e5 | 1.76e5 | – | 31683 | 2797 |
| CG15212 | 1 | 53312 | 27130 | – | 7832 | 3085 |
| CG8475 | 1 | 74018 | 68301 | – | 3042 | 2960 |
| Tim13 | 1 | 57192 | 59686 | 69509 | 6688 | 5540 |
| Sox102F | 1 | 1.15e5 | 1.18e5 | – | 2432 | 4041 |
| TTLL6B | 1 | 94889 | 89208 | – | 3277 | 2897 |
| COX7C | 1 | 91226 | 5.09e5 | 71274 | 2920 | 26381 |
| tara | 1 | 1.06e5 | 1.23e5 | – | 3017 | 3228 |
| l(3)mbn | 1 | 1.59e5 | 2.46e5 | – | 5012 | 11449 |
| CG13465 | 1 | 1.46e5 | – | – | 2005 | 3811 |
| CG18249 | 1 | 1.01e5 | 98981 | – | 3901 | 4104 |
| IntS2 | 1 | 1.15e5 | 1.42e5 | – | 2979 | 3272 |
| CG31827 + CG18478 | 1 | 1.03e5 | 65956 | – | 2872 | 5748 |
| CR12798 | 1 | 71952 | 1.94e5 | – | 2210 | 8314 |
| Hipk | 1 | 65744 | 1.00e5 | – | 2456 | 5257 |
| Hipk | 2 | 1.11e5 | 58669 | – | 4994 | 2524 |
| CG1273 | 1 | 1.17e5 | 49381 | – | 3125 | 1644 |
| CG10472 | 1 | 1.10e5 | 1.00e5 | – | 5005 | 3848 |
| CG10000 | 1 | 76118 | 1.09e5 | – | 3174 | 3312 |
| RpL30 | 1 | 27866 (active) | 20908 | – | 1441 | 3857 |
| CG12016 + Dpm2 | 1 | 70793 | 47456 | – | 3365 | 1607 |
| Unr | 1 | 1.08e5 | 89837 | – | 4353 | 2938 |
| hui | 1 | 1.10e5 | 71428 | – | 4521 | 2516 |
